Measured values: paper PMC10117657
These are yes or no findings as the source states them, for the method shown. In cells and extracts the contact can be indirect. These calls come from enrichment with a bait or labelling near it, and not all partners need be listed.

Sequences of proteins named here, by UniProt entry; tags and fusion partners are left off. Residues count along the entry.
UniProt Q8IZJ1, residues 27-945: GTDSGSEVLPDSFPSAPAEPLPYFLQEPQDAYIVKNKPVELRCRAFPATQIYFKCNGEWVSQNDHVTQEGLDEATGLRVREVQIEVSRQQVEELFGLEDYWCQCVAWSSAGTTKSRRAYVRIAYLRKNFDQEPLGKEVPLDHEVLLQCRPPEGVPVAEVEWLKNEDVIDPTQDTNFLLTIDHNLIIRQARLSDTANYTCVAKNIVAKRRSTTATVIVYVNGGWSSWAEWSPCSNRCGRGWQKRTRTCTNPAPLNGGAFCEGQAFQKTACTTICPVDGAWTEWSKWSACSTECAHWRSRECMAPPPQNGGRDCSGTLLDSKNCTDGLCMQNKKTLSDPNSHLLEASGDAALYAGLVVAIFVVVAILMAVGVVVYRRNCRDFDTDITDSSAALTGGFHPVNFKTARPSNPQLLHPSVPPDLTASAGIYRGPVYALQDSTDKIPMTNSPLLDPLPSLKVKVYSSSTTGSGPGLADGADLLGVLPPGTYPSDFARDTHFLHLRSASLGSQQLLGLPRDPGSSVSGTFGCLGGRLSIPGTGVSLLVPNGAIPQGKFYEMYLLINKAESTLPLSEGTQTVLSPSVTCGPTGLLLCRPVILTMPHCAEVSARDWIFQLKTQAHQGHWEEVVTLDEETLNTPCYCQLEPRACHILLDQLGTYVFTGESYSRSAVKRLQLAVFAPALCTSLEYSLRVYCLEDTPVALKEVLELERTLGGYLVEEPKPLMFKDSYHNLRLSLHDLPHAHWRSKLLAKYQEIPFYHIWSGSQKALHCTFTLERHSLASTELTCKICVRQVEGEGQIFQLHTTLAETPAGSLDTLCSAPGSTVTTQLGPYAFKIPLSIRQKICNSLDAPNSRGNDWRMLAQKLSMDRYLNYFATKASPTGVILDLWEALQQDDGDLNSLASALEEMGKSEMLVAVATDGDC
UniProt P06730: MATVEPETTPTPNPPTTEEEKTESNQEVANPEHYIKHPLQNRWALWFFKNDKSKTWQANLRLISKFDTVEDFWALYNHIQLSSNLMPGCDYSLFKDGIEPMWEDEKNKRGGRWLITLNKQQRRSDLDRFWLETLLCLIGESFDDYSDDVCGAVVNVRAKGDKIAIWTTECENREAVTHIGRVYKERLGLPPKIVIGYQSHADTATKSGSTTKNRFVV
UniProt P16520: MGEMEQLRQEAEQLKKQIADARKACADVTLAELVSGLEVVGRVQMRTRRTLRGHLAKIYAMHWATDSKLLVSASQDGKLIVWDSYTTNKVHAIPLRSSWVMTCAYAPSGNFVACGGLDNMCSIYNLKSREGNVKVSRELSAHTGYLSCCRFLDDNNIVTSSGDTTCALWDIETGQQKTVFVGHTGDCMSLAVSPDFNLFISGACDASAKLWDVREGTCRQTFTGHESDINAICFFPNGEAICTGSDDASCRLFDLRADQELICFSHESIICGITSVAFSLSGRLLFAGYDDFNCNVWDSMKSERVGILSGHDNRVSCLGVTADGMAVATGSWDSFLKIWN

B1: PPP2R2D (endogenous, HEK293T) (protein, UniProt Q66LE6 1-453)
chain: MAGAGGGGCPAGGNDFQWCFSQVKGAIDEDVAEADIISTVEFNYSGDLLATGDKGGRVVIFQREQENKSRPHSRGEYNVYSTFQSHEPEFDYLKSLEIEEKINKIRWLPQQNAAHFLLSTNDKTIKLWKISERDKRAEGYNLKDEDGRLRDPFRITALRVPILKPMDLMVEASPRRIFANAHTYHINSISVNSDHETYLSADDLRINLWHLEITDRSFNIVDIKPANMEELTEVITAAEFHPHQCNVFVYSSSKGTIRLCDMRSSALCDRHSKFFEEPEDPSSRSFFSEIISSISDVKFSHSGRYMMTRDYLSVKVWDLNMESRPVETHQVHEYLRSKLCSLYENDCIFDKFECCWNGSDSAIMTGSYNNFFRMFDRDTRRDVTLEASRESSKPRASLKPRKVCTGGKRRKDEISVDSLDFNKKILHTAWHPVDNVIAVAATNNLYIFQDKIN
B2: CDC37 (endogenous, HEK293T) (protein, UniProt Q16543 1-378)
chain: MVDYSVWDHIEVSDDEDETHPNIDTASLFRWRHQARVERMEQFQKEKEELDRGCRECKRKVAECQRKLKELEVAEGGKAELERLQAEAQQLRKEERSWEQKLEEMRKKEKSMPWNVDTLSKDGFSKSMVNTKPEKTEEDSEEVREQKHKTFVEKYEKQIKHFGMLRRWDDSQKYLSDNVHLVCEETANYLVIWCIDLEVEEKCALMEQVAHQTIVMQFILELAKSLKVDPRACFRQFFTKIKTADRQYMEGFNDELEAFKERVRGRAKLRIEKAMKEYEEEERKKRLGPGGLDPVEVYESLPEELQKCFDVKDVQMLQDAISKMDPTDAKYHMQRCIDSGLWVPNSKASEAKEGEEAGPGDPLLEAVPKTGDEKDVSV

These molecules were tested against Flag-UNC5B (human) (UniProt Q8IZJ1) (assay: affinity purification with mass spectrometry; HEK293T cells transfected with control vector or Flag-UNC5B for 48 h; samples collected with anti-Flag antibody; LC-MS/MS).

binding, binds:
EIF4E (endogenous, HEK293T) (from UniProt P06730 1-217)
GNB3 (endogenous, HEK293T) (from UniProt P16520 1-340)
B1
B2
